Reference: PubChem BioAssay AID504793 (Drosophila RNAi Screening Center, 2011)

Screen: 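Knock-downs allowing continued mitosis even though DNA is damaged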 (primary screen)
System: Drosophila S2R+ cells
Reagent: long dsRNA against Drosophila genes, about 0.25 µg dsRNA per well
Timing: 4 days of dsRNA, then 4 hours of drug before read-out
Conditions: doxorubicin 0.5 µM for 4 hours to cause double-strand breaks, in cells also given a low, harmless dose of dsRNA against nbs to sensitise the assay
Measured: 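Mitotic index as the number of phospho-histone H3-positive cells in each well following doxorubicin, given as raw counts without normalisation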
Reading the numbers: mitotic cells: higher = more cells in mitosis, weaker G2 arrest
Call rule: 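Genes are called active only when high mitotic counts were reproduced with independent dsRNAs and mitosis was checked for delay without damage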
Meaning of the calls: active = confirmed in follow-up tests; inactive = not confirmed
The screen tested about 23,000 reagents; shown is an unselected part of those with a known target gene and a result. Of all reagents, 62 (0.27%) were called active. 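Calls come from follow-up tests whose scores are not deposited, so confirmed genes may have low counts here; counts are not normalised per plate.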 Raw values vary from plate to plate and are shown uncorrected. Names joined by + are all predicted targets of the reagent.

{"predicted target": "scyl", "dsRNA": "DRSC11392", "mitotic cells, replicate 1": 5, "outcome": "inactive"}
{"predicted target": "scyl", "dsRNA": "DRSC27699", "mitotic cells, replicate 1": 3, "outcome": "inactive"}
{"predicted target": "CG31058 (retired record)", "dsRNA": "DRSC22987", "mitotic cells, replicate 1": 7, "outcome": "inactive"}
{"predicted target": "CG31058 (retired record)", "dsRNA": "DRSC25786", "mitotic cells, replicate 1": 3, "outcome": "inactive"}
{"predicted target": "dpr20", "dsRNA": "DRSC08265", "mitotic cells, replicate 1": 4, "outcome": "inactive"}
{"predicted target": "Mocs2A + Mocs2B", "dsRNA": "DRSC13697", "mitotic cells, replicate 1": 13, "outcome": "inactive"}
{"predicted target": "Mocs2A + Mocs2B", "dsRNA": "DRSC14219", "mitotic cells, replicate 1": 5, "outcome": "inactive"}
{"predicted target": "CG31845 (retired record)", "dsRNA": "DRSC23074", "mitotic cells, replicate 1": 12, "outcome": "inactive"}

Continued; the last 2 above are carried over.
{"predicted target": "Mocs2A + Mocs2B", "dsRNA": "DRSC14219", "mitotic cells, replicate 1": 5, "outcome": "inactive"}
{"predicted target": "CG31845 (retired record)", "dsRNA": "DRSC23074", "mitotic cells, replicate 1": 12, "outcome": "inactive"}
{"predicted target": "CG5346", "dsRNA": "DRSC15778", "mitotic cells, replicate 1": 11, "outcome": "inactive"}
{"predicted target": "CG5346", "dsRNA": "DRSC26107", "mitotic cells, replicate 1": 2, "outcome": "inactive"}
{"predicted target": "spidey", "dsRNA": "DRSC17932", "mitotic cells, replicate 1": 9, "outcome": "inactive"}
{"predicted target": "spidey", "dsRNA": "DRSC30107", "mitotic cells, replicate 1": 8, "outcome": "inactive"}
{"predicted target": "TyrRII", "dsRNA": "DRSC15150", "mitotic cells, replicate 1": 3, "outcome": "inactive"}
{"predicted target": "TyrRII", "dsRNA": "DRSC25254", "mitotic cells, replicate 1": 2, "outcome": "inactive"}
